Experimental data from PubChem BioAssay AID2058 (Sanford-Burnham Center for Chemical Genomics, 2009).
Screen size: about 290,000 compounds; about 150 (0.052%) were called active. The inconclusive results got no clear call from the source; some entries with a clear call stand among them for comparison.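 Rule for the calls: active = inhibition of at least 50% with at least 30 cells and total cytoplasm GFP at most 10,000,000; inconclusive = under 30 cells or total GFP of 10,000,000 plus; inactive = the rest.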

By UniProt entry, the sequences of proteins in these tests, tags left out. Where a name states a change or a piece, a line headed by the entry shows the natural chain unless it says otherwise.
UniProt Q9HC97: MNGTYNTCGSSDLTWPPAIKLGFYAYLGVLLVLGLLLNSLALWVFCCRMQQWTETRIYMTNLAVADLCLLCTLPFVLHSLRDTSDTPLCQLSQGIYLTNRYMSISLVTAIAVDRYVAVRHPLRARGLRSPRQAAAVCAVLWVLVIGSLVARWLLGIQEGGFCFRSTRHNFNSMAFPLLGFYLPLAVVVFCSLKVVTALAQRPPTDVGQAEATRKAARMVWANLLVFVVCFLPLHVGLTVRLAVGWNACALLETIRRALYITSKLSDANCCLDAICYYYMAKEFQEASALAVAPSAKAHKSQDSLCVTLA

target: G-protein coupled receptor 35 (Homo sapiens) (UniProt Q9HC97); assay: GPR35 antagonists blocking zaprinast-driven arrestin recruitment, primary screen, imaging, U2OS, beta-arrestin-GFP, zaprinast agonist (AID 2058); conditions: U2OS GPR35 beta-arrestin-GFP translocation imaging, zaprinast antagonism; at 10 µM; hits give high values

SMILES	inhibition
CCC(=O)Nc1cccc(NC(=O)c2cccc([N+](=O)[O-])c2C)c1	inconclusive: 19.4%
CCCCNc1c2c3c(cccc3n(C)c1=O)C(=O)c1ccccc1-2	inconclusive: 113%
CCN(CC)c1ccc2cc(-c3nc(-c4ccc(OC)cc4)cs3)c(=O)oc2c1	inconclusive: 120%
COC(=O)c1cc(NC(=O)c2ccccc2)c(=O)oc1/C=C/Nc1ccc(Oc2ccccc2)cc1	inconclusive: 76.1%
COc1ccc(CN=Cc2[nH]c3ccc(Br)c(Cl)c3c2O)cc1	inconclusive: 99.8%
O=C(Cn1cnc2cc([N+](=O)[O-])ccc2c1=O)NCCc1ccc(Cl)cc1	inconclusive: 9.3%
COCCCn1c(=N)c(C(=O)NCC2CCCO2)cc2c(=O)n3cccc(C)c3nc21 (centres undefined)	inconclusive: 10.3%
CC[n+]1c(/C=C2\Sc3ccccc3N2C)ccc2cccc(C)c21	inconclusive: 120%
O=c1cc(N=Nc2ccc(Cl)cc2)[nH]c(=O)[nH]1	active: 52.2%
CN1CCc2c(sc3nc(NN)n(Cc4ccccc4)c(=O)c23)C1	inactive: 12.8%
CCC(CO)[n+]1c(C)cc(/C=C2\Sc3ccccc3N2Cc2ccccc2)cc1C (centres undefined)	inconclusive: 111%
Cn1c(-c2ccc([N+](=O)[O-])cc2)nc2ccccc21	inconclusive: 7.4%
O=C(CCN1C(=O)S/C(=C\c2ccc(Cl)cc2)C1=O)Nc1ccc(C(=O)O)cc1	inactive: 4.2%
CCCN1CC=C2C(C#N)=C(N)C(C#N)(C#N)C(c3cccc(OC)c3OC)C2C1 (centres undefined)	active: 101%
Cc1[nH]c2ccccc2c1/C=C/c1cc[n+](C)cc1	active: 71.2%
O=C(NC1CCCCC1)C(=S)N1CCOCC1	inconclusive: 16.8%
CCCCNC(=O)CC1C(=O)N(Cc2ccccc2)C(C)c2nc3ccccc3n21 (centres undefined)	inconclusive: 21.4%
CCN1C(=O)/C(=C/C=C2\N(CC)c3cc(S(=O)(=O)N(C)C)ccc3N2c2ccccc2)SC1=S	active: 62%
O=C1C2C3C=CC(C3)C2C(=O)N1CCCCCCN1C(=O)C2C3C=CC(C3)C2C1=O (centres undefined)	inactive: -2%
COc1cc([C@@H]2[C@H]3CN(C)CC=C3C(C#N)=C(N)C2(C#N)C#N)cc2c1OCO2	inactive: 48.3%
CC(C)Oc1ccc(Nc2ncnc3ccccc23)cc1	inconclusive: 2.3%
CN(C)c1ccc(/C=C2\SC(=S)N(Nc3ncc(C(F)(F)F)cc3Cl)C2=O)cc1	inconclusive: 99.6%
O=C(Nc1ccccc1N1CCOCC1)C1CCN(S(=O)(=O)c2cccc(C(F)(F)F)c2)CC1	inconclusive: 120%

SMILES	inhibition
S=C(Nc1ccc(Nc2ccccc2)cc1)NC1CCCCCC1	inconclusive: -15.5%
N#C/C(=C/c1ccc(N2CCCCC2)cc1)c1cccc(F)c1	inactive: 11.7%
O=C1/C(=C\c2cc([N+](=O)[O-])ccc2O)SC(=S)N1Cc1ccc(Cl)cc1	active: 61.1%
COc1ccccc1N(CCN1C(=O)c2cccc3cccc(c23)C1=O)C(=O)c1ccncc1	inconclusive: 4.7%
CC(Sc1nc(-c2ccc(F)cc2)cs1)C(=O)N1c2ccccc2CC1C (centres undefined)	inconclusive: 121%
CCN1/C(=C/C=C/c2oc3ccc(-c4ccccc4)cc3[n+]2CC)Oc2ccc(-c3ccccc3)cc21	inconclusive: 112%
CCOC(=O)CC1C(=O)NCCN1c1nc2c(C)cccn2c(=O)c1/C=C1\SC(=S)N(C(C)CC)C1=O (centres undefined)	active: 55.7%
CC1Cc2ccccc2N1C(=O)CN1CCC(C(N)=O)CC1 (centres undefined)	inconclusive: 23.3%
Cc1ccc(-c2csc3nnc(SCC(=O)N4CCN(Cc5ccccc5)CC4)n23)cc1	inconclusive: 114%
CCN(CC)c1ccc(/C=C/C(=O)c2ccc(Br)cc2)cc1	inconclusive: 109%
O=C(/C=C/c1ccc(N2CCC(c3ccccc3)=N2)cc1)c1ccccc1	inconclusive: 95.3%
COc1ccccc1N1C(=O)c2ccccc2NC1C(OC)OC (centres undefined)	inconclusive: 4.6%
COc1ccc(S(=O)(=O)N2CCN(c3ccccn3)CC2)cc1OC	inactive: 2.6%
Cc1cccc(/C=C2/S/C(=N/N=C3\CC4CCC3(C)C4(C)C)NC2=O)c1 (centres undefined)	inactive: 1.3%
COC(=O)CC(c1ccc(OC)c(OC)c1)c1ccc(OC)c(OC)c1	inconclusive: 4.3%
CN1CC=C2C(C#N)=C(N)C(C#N)(C#N)[C@H](c3cccc(Cl)c3)C2C1 (some centres undefined)	active: 101%
CC(=O)Nc1ccc(-c2ccccc2)s1	inconclusive: 4.8%
Cc1ccc2ncnc(NCCCCCC(=O)O)c2c1	inconclusive: 112%
Cc1cccc(N=Cc2cc(Br)cc(Cl)c2O)c1	inactive: -33.9%
COc1ccc(N2CS(=O)CC2=O)cc1 (centres undefined)	inconclusive: -1.1%
CCOC(=O)NC(=O)COC(=O)CNC(=O)c1cccc(OC)c1	inconclusive: 24.2%
CCCCCc1ccc(OCCOCCn2c[n+](C)c3ccccc32)c(CCCCC)c1	inconclusive: -4.9%
CCCCNc1ccc2c3c(cccc13)C(=O)N(CCCC)C2=O	inconclusive: 106%

SMILES	inhibition
CCCN1C=CC(=CC=C(C#N)C#N)C=C1	active: 59.2%
COCCNC(=O)CSc1nc2ccc(N3CCOCC3)cc2c(=O)n1CCc1ccccc1	inactive: -7.7%
O=C(c1cccnc1)N1CCN(Cc2cccc(Br)c2)CC1	inconclusive: 116%
Cc1ccc2c(c1)c(/C=C/c1cc[n+](C)cc1)c(C)n2C	inconclusive: 124%
Oc1c(C=NCc2ccc(F)cc2)[nH]c2ccc(Br)c(Cl)c12	inconclusive: 98%
Cn1ccc(=Nc2ccc(NC(=O)c3ccc(N=c4ccn(C)c5ccc([N+](=O)[O-])cc45)cc3)cc2)cc1	active: 53.5%
CN(C)c1ccc(/C=C/C(=O)c2cccc(Br)c2)cc1	inconclusive: 108%
CCc1nnc(NS(=O)(=O)c2ccc(NC(=S)NC(=O)/C=C/c3ccccc3)cc2)s1	inactive: -2.9%
Cc1c(-c2ccc(O)cc2)nc2nc(-c3ccccc3)c(-c3ccccc3)nn12	inconclusive: 111%
CC1CCN(c2cc(N)c(Cl)cc2[N+](=O)[O-])CC1	inconclusive: -6.2%
N#Cc1c(C(F)(F)F)cc(=O)[nH]c1SCC(=O)O	inactive: -12%
O=C(NCc1ccc2c(c1)OCO2)C1CC(=O)N(CCc2ccc(Cl)cc2)C1 (centres undefined)	inactive: -11.7%
CCN(CC)c1ccc2cc(-c3nc4ccccc4[nH]3)c(=O)oc2c1	inconclusive: 120%
CCOC(=O)CCSc1nc(C)c2cc(C)c(C)cc2n1	inconclusive: 11.4%
CCOC(=O)C1(Cc2ccc(OC)cc2)CCN(C(=O)CC2CCC(=O)N2)CC1 (centres undefined)	inconclusive: 113%
CCN1CC=C2C(C#N)=C(N)C(C#N)(C#N)[C@H](c3ccoc3)[C@H]2C1	active: 67.4%
O=S(=O)(Nc1nc2ccccc2nc1-[n+]1ccccc1)c1ccc(Cl)cc1	inactive: -1.7%
O=C(NN1C(=O)c2ccccc2C1=O)c1ccncc1	inconclusive: -13%
CC(C)N1CC=C2C(C#N)=C(N)C(C#N)(C#N)[C@H](c3ccoc3)[C@H]2C1	inconclusive: 105%
COc1ccc(C(=O)ON=C2c3ccccc3-c3ccccc32)cc1OC	inconclusive: -7.4%
O=C(CCN1C(=O)/C(=C\c2ccccc2)SC1=S)Nc1ccc(C(=O)O)cc1	inactive: 27.2%
CCN(CC)C1=CC2=CC(=C(C#N)C#N)CCC2CC1 (centres undefined)	inconclusive: 98.2%
CCN1/C(=C/C=C/C=C/C=C/c2sc3ccccc3[n+]2CC)Sc2ccccc21	inactive: 44.3%

SMILES	inhibition
O=C(CSCc1c(F)cccc1Cl)NCc1ccncc1	inconclusive: 14.9%
CC[n+]1ccc(/C=C/c2ccc(N(C)C)cc2)c2ccccc21	active: 103%
O=C(COc1ccccc1[N+](=O)[O-])N/N=C/c1ccc(OC(=O)c2ccco2)cc1	inconclusive: -13.9%
COc1ccc(-c2ncc3ccccn23)cc1	inconclusive: 0.7%
Oc1ccc(C2=NN(c3ccccc3)C(c3ccc(F)cc3)C2)cc1 (centres undefined)	active: 78.6%
O=C(N/N=C/c1cccs1)[C@H]1C[C@@H]1c1ccccc1	inactive: 9.8%
Brc1ccc(N=C/C=C/C=C/Nc2ccc(Br)cc2)cc1	inactive: 40.6%
O=C1S/C(=C\c2ccc(N3CCOCC3)o2)C(=O)N1Cc1c(F)cccc1Cl	inconclusive: 92.9%
CCN1CCc2c(sc(NC(=O)Nc3ccc(Cl)c(Cl)c3)c2C(N)=O)C1	inconclusive: 109%
CNc1ccccc1C(C)(C)c1ccn[nH]1	inconclusive: -15.2%
CCc1ccc(Nc2n[n+](-c3ccccc3)c(-c3ccc(N(CC)CC)cc3)s2)cc1	inconclusive: 112%
COCCn1c(SCC(=O)N(C)C2CCS(=O)(=O)C2)nc2ccccc2c1=O (centres undefined)	inconclusive: -7.5%
CC(C)(C=O)C1=CC(=O)c2ccccc2C1=O	active: 78.8%
O=C(CSc1nc(O)c(C2CCCCC2)c(=O)[nH]1)Nc1ccccc1Cl	inactive: -1.9%
CC[n+]1c(/C=C/C=C/N(C(C)=O)c2ccccc2)sc2ccccc21	inconclusive: 112%
OCCN(CCO)c1ccc2ccccc2c1	inconclusive: -2.8%
CC[n+]1c(/C=C/c2ccc(N(C)C)cc2)ccc2ccccc21	inactive: 6.3%
Cc1cc(-c2nn(-c3ccccc3F)cc2CN2CCCC(CO)C2)c(C)s1 (centres undefined)	inactive: 19.6%
CN1C(=S)N(c2cccnc2)C(=O)/C1=C\c1ccc(N(C)C)cc1	inactive: 15.6%
CC(=O)c1ccc(NC(=O)CCCN2C(=O)/C(=C/C(C)=C/c3ccccc3)SC2=S)cc1	inactive: 19.4%

Rewritten bar-delimited: entries from further up
SMILES | inhibition
O=C(CCN1C(=O)/C(=C\c2ccccc2)SC1=S)Nc1ccc(C(=O)O)cc1 | inactive: 27.2%
CCN(CC)C1=CC2=CC(=C(C#N)C#N)CCC2CC1 (centres undefined) | inconclusive: 98.2%
CCN1/C(=C/C=C/C=C/C=C/c2sc3ccccc3[n+]2CC)Sc2ccccc21 | inactive: 44.3%
O=C(CSCc1c(F)cccc1Cl)NCc1ccncc1 | inconclusive: 14.9%
CC[n+]1ccc(/C=C/c2ccc(N(C)C)cc2)c2ccccc21 | active: 103%
O=C(COc1ccccc1[N+](=O)[O-])N/N=C/c1ccc(OC(=O)c2ccco2)cc1 | inconclusive: -13.9%
COc1ccc(-c2ncc3ccccn23)cc1 | inconclusive: 0.7%
O=C(N/N=C/c1cccs1)[C@H]1C[C@@H]1c1ccccc1 | inactive: 9.8%
O=C1S/C(=C\c2ccc(N3CCOCC3)o2)C(=O)N1Cc1c(F)cccc1Cl | inconclusive: 92.9%
CCN1CCc2c(sc(NC(=O)Nc3ccc(Cl)c(Cl)c3)c2C(N)=O)C1 | inconclusive: 109%
CNc1ccccc1C(C)(C)c1ccn[nH]1 | inconclusive: -15.2%
CCc1ccc(Nc2n[n+](-c3ccccc3)c(-c3ccc(N(CC)CC)cc3)s2)cc1 | inconclusive: 112%
COCCn1c(SCC(=O)N(C)C2CCS(=O)(=O)C2)nc2ccccc2c1=O (centres undefined) | inconclusive: -7.5%
CC(C)(C=O)C1=CC(=O)c2ccccc2C1=O | active: 78.8%
O=C(CSc1nc(O)c(C2CCCCC2)c(=O)[nH]1)Nc1ccccc1Cl | inactive: -1.9%
OCCN(CCO)c1ccc2ccccc2c1 | inconclusive: -2.8%
CC[n+]1c(/C=C/c2ccc(N(C)C)cc2)ccc2ccccc21 | inactive: 6.3%
Cc1cc(-c2nn(-c3ccccc3F)cc2CN2CCCC(CO)C2)c(C)s1 (centres undefined) | inactive: 19.6%
CN1C(=S)N(c2cccnc2)C(=O)/C1=C\c1ccc(N(C)C)cc1 | inactive: 15.6%
CC(=O)c1ccc(NC(=O)CCCN2C(=O)/C(=C/C(C)=C/c3ccccc3)SC2=S)cc1 | inactive: 19.4%
